Measurements as given in PubChem BioAssay AID1347423 (Functional Genomics Laboratory (NCATS/FGL), 2020).
The campaign covered roughly 52,000 sequences. About 210 (0.4%) were called active.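 How the source made its calls: active means gene whose silencing raises cell survival under the drug, median off-target-corrected z-score across its silencing RNAs 2 or more; inactive means the rest.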 This is one part of the list.

Assay: Resistance to Poly (ADP-Ribose) Polymerase inhibitor: Gene Identification via Genome-wide siRNA Screen
Settings: mouse BRCA2 R2336H ES cells, olaparib, CellTiter-Glo viability; active compounds read high
Method in brief: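 Mouse BRCA2 R2336H ES cells were reverse-transfected with siRNA (20 nM final), treated at 48 h with 500 nM olaparib, and read by CellTiter-Glo after 72 h. Scores: MAD-based z per siRNA, median per gene, seed off-target correction.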

Row | Sequence | z-score
1 | GCCUGAUACCUUGAAGGAATT against 1810019P04Rik | inactive: -0.461
2 | GCACAACCAAUUACGUGGCTT against Gpnmb | inactive: 0.38
3 | CCAACUACUAGAAUGUAUCTT against A830043J08Rik | inactive: -0.509
4 | GGAACAGCCUAUGUGGUCUTT against 0610009D07Rik | inactive: -2.91
5 | CCGGUCAUCUUUCUAUUAUTT against 9530008L14Rik | inactive: -0.162
6 | CGGAUUACUUUGUAAAGAUTT against Il17rd | inactive: 0.122
7 | GGUGAUGAUGAUGGGCAACTT against Cdkn2a | inactive: -1.79
8 | GGAUGAGUUCUUCUUCGGCTT against D15Wsu75e | inactive: 0.55
9 | GGAACAUAGAUGCGUGUGGTT against Rprm | inactive: 0.332
10 | CCUUAGAGAGUAUGAUUAUTT against 4933405O20Rik | inactive: -1.11
11 | GGGAGGUUCCUAUUGAAGGTT against Unc5d | inactive: -0.824
12 | GGGUCAUUCUGUUACUCUUTT against Taar7a | inactive: 0.372
13 | GCCGACAUCUUUGCUCAGATT against 4632413C14Rik | inactive: 1.01
14 | GGGCUCAGAGACAAACUGUTT against Tnr | inactive: -1.19
15 | GGGAAUAUGUGAAACAGACTT against Syk | inactive: -1.61
16 | CGAAGGACAAAAUAUCAGCTT against 4930517G15Rik | inactive: -0.16
17 | CGAGGAGCCUGAAAUAUGGTT against Exosc2 | inactive: -1.84
18 | GGACUACUCUGCCAGAUGGTT against BC048651 | inactive: -1.74
19 | GGUCUUUUCAGAAUAAACUTT against 4930455C21Rik | inactive: 0.694
20 | GGAGAACGAGUUGUAUAGCTT against Dok2 | inactive: -1.09
21 | GCCGAUUGUCCUAUCUCCATT against Cmar | inactive: 0.475
22 | GCAUGCUAGAAGCUAAAAATT against Golga3 | inactive: 1.59

Row | Sequence | z-score
23 | GGAGAGAUGAUACUGUUGGTT against Olfr1295 | inactive: 0.0734
24 | GGAGAGAAACUGCGUGUAATT against Sla | inactive: 1.3
25 | GCAACUCAGCUGUUGUGAGTT against Ifitm2 | inactive: -1.83
26 | GCCCAAACAUAUUAAACUUTT against Ubap2 | inactive: -1.17
27 | CCCGAACAGAGGAUCGAAATT against Cxadr | inactive: -0.162
28 | GGGCUUAUCUAUGUCCUUCTT against Olfr59 | inactive: -0.589
29 | CCAUCAAGAAUGUCCGUGATT against Pkm2 | inactive: 1.12
30 | CCGUGAUAACAACAUUUGUTT against Olfr750 | inactive: -0.368
31 | GCAAGCUUAUAUGUUUGACTT against Ggh | inactive: 0.891
32 | GGCUGAGAUUAUCACUGUCTT against D11Wsu68e | inactive: -0.19
33 | GGCAUCUUAUGGCCUAAAATT against Rnf31 | inactive: -0.542
34 | GGAAUCAGAUACAAAGGAGTT against 1810057E01Rik | inactive: -1.06
35 | GGAGGCCCUCAUGAAACGUTT against 1500010J02Rik | inactive: 0.181
36 | GGACAGAAUCCUCUCCAGGTT against Tas1r1 | inactive: -1.85
37 | CGGAAUGUACACCUACUUUTT against Gm50 | inactive: 0.788
38 | GGAUCUCCGGACAUUUAAGTT against Gm466 | inactive: 0.998
39 | GGAACUGGUGAAGCUCACUTT against BC002236 | inactive: 1.17
40 | CCGGAGCUUACUGGUGACATT against 4930432J16Rik | inactive: -0.0493
41 | GGAGAAGAAUUCUUACAGGTT against Fbxo16 | inactive: 0.175
42 | GGCAUGACUUCCAUUUCCCTT against Zfp297 | inactive: 0.341
43 | GGAUGUCUCAACAUUCUUCTT against V1rb1 | inactive: 0.448
44 | GGAGAGUCACUGUUGAUGGTT against Sumf1 | inactive: 1.29

Row | Sequence | z-score
45 | GGCAAUUGCACCAUUGAAUTT against Egfl5 | inactive: 0.346
46 | GGGCAGACCUAAUAGCUUATT against Cycs | inactive: 0.982
47 | GGAAGACAAUCGCUGCGUGTT against BC037432 | inactive: -1.02
48 | GCUGCGCAUCCACUUAGAUTT against 1810008K16Rik | inactive: -0.94
49 | GGUGAAAAAGUCUGACUGUTT against Ptn | inactive: -0.887
50 | GGAAGUGGACUACUUCUUCTT against Olfr1511 | inactive: -0.859
51 | GGUACCUAUGCCAGUUUUGTT against Aqp12 | inactive: -0.343
52 | GGGCUUCUUUGCCACACUUTT against Rho | inactive: -1.89
53 | GGGUGAAUUUUGUUUUUGUTT against Kcnj14 | inactive: 0.585
54 | GCACGGUCAGUUCUGUGAUTT against Fbxl6 | inactive: -0.984
55 | GGCUACUGUAGGAAGAAAUTT against 9230107O10Rik | inactive: -0.343
56 | GGUCAAGACUAGCUACUUUTT against Dfna5h | inactive: -0.672
57 | CGCAUUAUGAAUGACUACUTT against Svs1 | inactive: -0.133
58 | GGUCUUUGGACCCUGUUUGTT against Tor1b | inactive: 1.89
59 | CGAAGGGAAGCAAAAUACATT against 2310026E23Rik | inactive: -0.094
60 | GGAAGUUGAAAGACUUACGTT against Tnip2 | inactive: -1.55
61 | GGAACAAAACAAAUAGCUATT against BC027127 | inactive: 1.49
62 | GGAUCAGACCAAACUUCAATT against Glrb | inactive: -0.707
63 | CCAGAGUUCUGGGAUUCCATT against Cyp2c66 | inactive: -0.884
64 | GGAUCCUGUCAAAGAUAAUTT against Zfp592 | inactive: -0.116
65 | GCGUGUAAUAUUCAUCAUATT against Tprt | inactive: 0.0864
66 | GGGAUUCGGGUUCGUAACUTT against Rbm9 | inactive: 0.927

Another view of part of the listing above:
GGCAAUUGCACCAUUGAAUTT against Egfl5
  z-score: inactive: 0.346
GGGCAGACCUAAUAGCUUATT against Cycs
  z-score: inactive: 0.982
GGUGAAAAAGUCUGACUGUTT against Ptn
  z-score: inactive: -0.887
GGGCUUCUUUGCCACACUUTT against Rho
  z-score: inactive: -1.89
